The test deals with PAK1-p21 binding domain (PAK1-PBD)-coupled beads (UniProt Q13153). As to the kind of experiment: pull-down.

By UniProt entry, the sequences of proteins in these tests, tags left out. Where a name states a change or a piece, a line headed by the entry shows the natural chain unless it says otherwise.
UniProt Q13153: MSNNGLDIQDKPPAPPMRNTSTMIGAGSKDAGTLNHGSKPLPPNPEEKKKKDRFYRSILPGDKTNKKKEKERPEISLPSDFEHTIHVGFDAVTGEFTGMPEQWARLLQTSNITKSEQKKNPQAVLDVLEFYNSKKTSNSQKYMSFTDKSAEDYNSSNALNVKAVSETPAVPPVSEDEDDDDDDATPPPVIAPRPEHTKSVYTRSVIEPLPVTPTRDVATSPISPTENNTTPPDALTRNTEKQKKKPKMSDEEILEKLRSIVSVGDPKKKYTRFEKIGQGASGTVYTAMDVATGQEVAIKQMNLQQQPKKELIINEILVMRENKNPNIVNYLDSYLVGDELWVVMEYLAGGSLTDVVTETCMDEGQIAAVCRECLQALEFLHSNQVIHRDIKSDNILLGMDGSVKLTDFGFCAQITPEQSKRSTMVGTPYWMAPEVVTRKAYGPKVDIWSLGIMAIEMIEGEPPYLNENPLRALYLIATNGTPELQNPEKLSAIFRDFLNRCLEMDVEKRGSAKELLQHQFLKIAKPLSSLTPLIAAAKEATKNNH
UniProt Q9H4E5: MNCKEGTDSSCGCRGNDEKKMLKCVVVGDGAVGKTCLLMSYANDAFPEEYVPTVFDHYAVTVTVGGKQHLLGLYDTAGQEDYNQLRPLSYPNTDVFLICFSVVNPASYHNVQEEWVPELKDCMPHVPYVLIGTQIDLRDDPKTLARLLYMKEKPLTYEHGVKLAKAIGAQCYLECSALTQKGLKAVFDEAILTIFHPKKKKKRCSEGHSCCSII
UniProt P60953: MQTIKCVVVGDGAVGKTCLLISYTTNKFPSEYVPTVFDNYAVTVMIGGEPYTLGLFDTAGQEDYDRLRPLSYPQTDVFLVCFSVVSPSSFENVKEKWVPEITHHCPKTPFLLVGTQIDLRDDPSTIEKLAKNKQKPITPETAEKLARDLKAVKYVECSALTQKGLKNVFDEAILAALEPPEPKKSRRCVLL

Results are given in words; binding and its absence hold for the method and conditions named. Binding seen in cells or lysates may run through a third protein. Binding calls can cover weak binding; strength is not graded here.

For the substance RHOJ (from UniProt Q9H4E5 1-214), the binding result is reported as “binds”. As for CDC42 (from UniProt P60953 1-191), the binding result is given as “binds”.

Source of the values: article PMC9127750.
